Percent effect of library compounds

Chains of the proteins cited; added tags and fusions are not shown. Residues count along the entry.
UniProt Q4DA54, 1-478: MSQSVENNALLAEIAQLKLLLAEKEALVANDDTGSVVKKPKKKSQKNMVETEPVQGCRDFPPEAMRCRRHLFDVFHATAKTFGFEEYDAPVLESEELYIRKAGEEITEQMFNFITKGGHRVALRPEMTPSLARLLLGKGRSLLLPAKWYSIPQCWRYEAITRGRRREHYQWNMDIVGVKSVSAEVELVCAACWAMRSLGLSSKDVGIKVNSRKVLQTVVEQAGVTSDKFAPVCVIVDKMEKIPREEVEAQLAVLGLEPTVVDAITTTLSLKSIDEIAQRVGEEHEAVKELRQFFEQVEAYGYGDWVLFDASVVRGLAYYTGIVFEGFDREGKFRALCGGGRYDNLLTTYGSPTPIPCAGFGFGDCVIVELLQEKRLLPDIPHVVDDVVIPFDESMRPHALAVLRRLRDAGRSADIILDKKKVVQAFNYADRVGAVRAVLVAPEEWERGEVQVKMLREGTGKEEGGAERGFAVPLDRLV

From ChEMBL document CHEMBL3988442, “University of Dundee, Small-Polar-MMV Screening Library” (2021).

Each number is a percent effect as filed.
The controls that fix the scale are not given in the record; negative values are as filed.
This is an unselected part of the compounds tested.

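Enzyme assay of histidyl-tRNA synthetase; the read-out is not stated. Target: Histidine-tRNA ligase, Trypanosoma cruzi CL Brener (UniProt Q4DA54). Tested at 30 µM. Direction is inferred from retests: higher values go with stronger inhibition. Of about 69,000 compounds tested this way, about 31 (0.045%) reached 50% or more in at least one test.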

For O=C(C[C@@H]1COC[C@H]2CN(Cc3ccncc3)C[C@@H]12)N1CCCC1 the result was 0%. For CC(C)OCCOCC(O)CN(C)C(=O)Nc1ccc(F)cc1Cl (stereo not drawn) the result was 6.952%. CC(C)(C)OC(=O)NC(C)(C)c1noc(Cn2ccnc2)n1 gave 3.061%. CCOc1ncccc1NC(=O)N1CCC(CN2CCOCC2)CC1 gave 3.79%. For CN(C)c1cc(C(=O)NCC2(c3cccc(F)c3)CCOCC2)ccn1 the result was 0.9804%. O=C(NC[C@]12COC[C@H]1CN(Cc1cccnc1)C2)c1ccsc1 gave 4.132%. COc1ccc(N2Cc3nc(N4CCCC4)ncc3C2=O)cc1Cl read -3.727%. Result for CC(=O)N(CCc1nc(-c2cc(C(N)=O)co2)cs1)C(C)C was 3.571%.

Result for CC(NC(=O)N1CCNC(=O)CC1)c1ccc(C(F)(F)F)cc1 (stereo not drawn) was 6.211%. With CCS(=O)(=O)N1CCC2(CC1)CC(CC(=O)NC1CC1)c1ccccc12 (stereo not drawn) the screen gave 5.6%. Cc1cc(C2CCCN2C(=O)CN2C(=O)OC(C)(C)C2=O)on1 (stereo not drawn) gave 10%. CC(C)(C)n1ncc(NCc2ccccc2)c(Cl)c1=O gave 7.389%. With CC(C)C(Nc1nc(C(F)(F)F)nc2ccccc12)C(=O)O (stereo not drawn) the screen gave 3.409%. Cc1ccc(NC(=O)Nc2c[nH]c(=O)[nH]c2=O)c(Cl)c1 read 6.931%. For CCc1c(C(=O)Nc2ccc(F)c(C(=O)NC)c2)cnn1CC(C)C the result was 6.03%. For Cn1cc(CN2CCN(Cc3nccn3C)CC2)cn1 the result was 0.8475%.

For O=C(CC1CC1)N1CCc2ncc(CN3CCOCC3)n2CC1 the result was 10.78%. NC(=O)NCC(=O)N1C[C@H]2CC[C@@H]1CN(C1Cc3ccccc3C1)C2 read 11.02%. For CCS(=O)(=O)N1CCC2(C1)C(=O)N(C)CCN2Cc1ccncc1 (stereo not drawn) the result was 2.97%. COc1c(C2CCCN2Cc2cn3ccsc3n2)c(C)nn1C (stereo not drawn) gave 3.448%. Result for CNC(=O)c1ccc(C(=O)N2CCCCC2Cn2cc(C)cn2)cn1 (stereo not drawn) was -6.745%. CC1CN(c2ccc(CNC(=O)c3ccn(C)c(=O)c3)cn2)CCO1 (stereo not drawn) gave -4.151%. For CCc1cc(CN(C)C(=O)c2nnc(CN(C)C)o2)on1 the result was 8.901%. Result for Cc1ccc(CN2CCCC3(CCCCN3S(C)(=O)=O)C2)s1 (stereo not drawn) was 5.155%.

CC(C)c1nc(CN2CCOC(Cn3cccn3)C2)no1 (stereo not drawn) gave 4.035%. Result for O=C(CC1CC1)N1CCC2(CC1)CC(Oc1ccccc1)CO2 (stereo not drawn) was 0.4975%. Cc1cnc(N2CCC3(CCC(C(=O)NC(C)C)OC3)CC2)nc1 (stereo not drawn) gave 7.362%. For O=S(=O)(Cc1ccc(F)cc1F)NCCOc1cccnc1 the result was -0.5848%. For COc1cc(N(C)Cc2cccc(-n3cccn3)c2)nc(N)n1 the result was 2.793%. With Cc1nccnc1N1CCC(Cc2ccccc2Cl)(C(=O)O)CC1 the screen gave 0%. Result for Cc1nc(CN2CCCC(NCc3c(C)nc4sccn34)C2)no1 (stereo not drawn) was 3.053%. c1nc2c(c(NCCCn3cncn3)n1)CCN(CC1CCOC1)CC2 (stereo not drawn) gave 4.891%.

Result for CN(C)C(=O)COCc1nnc2n1CCN(Cc1ccoc1)C2 was 8.046%. Result for c1cnc(N2CCO[C@H]3CN(Cc4c[nH]cn4)C[C@H]32)cn1 was 2.299%. Result for CC(Nc1ccc(CC(=O)N(C)C)cc1)C(=O)N(C)CCC#N (stereo not drawn) was 5.882%. For Cc1ccc(S(=O)(=O)NC(=O)c2c(C)noc2C(C)C)cc1C the result was 1.087%. With O=C(c1cc(C2CC2)on1)N1CC[C@]2(C[C@H](Oc3cccnc3)CO2)C1 the screen gave 2.732%.

For reference, 2 entries once more:

{"smiles": "O=C(C[C@@H]1COC[C@H]2CN(Cc3ccncc3)C[C@@H]12)N1CCCC1", "effect": 0}
{"smiles": "COc1cc(N(C)Cc2cccc(-n3cccn3)c2)nc(N)n1", "effect": 2.793}